The values below come from patent US20260207704A1 (priority 2022, published 2026).

Some peptides are written in HELM: one residue between dots, names in brackets for other building blocks, links after the first $.

A short description of the data set: general procedure: Fmoc solid-phase peptide synthesis; Rink amide MBHA resin (0.51 mmol/g). Particulars: whole synthesis, UV at, e.g., 210-400 nm, scale of the general procedure 13 mmol.

With “PEPTIDE1{[Ac].[PL3].D.[Npg].[B5].D.[3COOHF].[Aib].A.F.[TriAzLys].[PyrS2].[3Thi].[BztA].[sAla].A.[am]}$PEPTIDE1,PEPTIDE1,11:R3-15:R3|PEPTIDE1,PEPTIDE1,2:R3-5:R3|PEPTIDE1,PEPTIDE1,5:R4-12:R3$$$V2.0”, the “crude LC-MS purity” value is 82%.
